The entries are a selection whose mix differs from that of the whole data set. Calls are pooled over several reports, among them a noisy single-well screen. Some of the results follow.
Assays:
Conditions in all cases: stereoisomer not certain
OR5M11 (Homo sapiens) = target: T1, OR5M11 (Homo sapiens) (UniProt Q96RB7)
T1 sequence (whole entry): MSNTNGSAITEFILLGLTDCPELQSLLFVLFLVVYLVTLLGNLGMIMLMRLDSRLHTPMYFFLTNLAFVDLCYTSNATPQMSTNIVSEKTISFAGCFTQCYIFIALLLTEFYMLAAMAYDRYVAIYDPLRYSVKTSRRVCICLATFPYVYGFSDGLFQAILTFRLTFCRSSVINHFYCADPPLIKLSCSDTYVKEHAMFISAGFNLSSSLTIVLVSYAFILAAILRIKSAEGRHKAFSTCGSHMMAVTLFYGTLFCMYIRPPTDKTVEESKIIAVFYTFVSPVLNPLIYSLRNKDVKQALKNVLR
Procedure, shortened: (§1)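 Assay methods differ from source to source, frequently being transient luciferase assays in mammalian cell lines. For each receptor–molecule pair, the label responsive (active) applies when the original authors judged the measured signal statistically different from baseline, and non-responsive (inactive) applies otherwise.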

OR5M1 = test system: T2, OR5M1
T2 sequence (whole entry): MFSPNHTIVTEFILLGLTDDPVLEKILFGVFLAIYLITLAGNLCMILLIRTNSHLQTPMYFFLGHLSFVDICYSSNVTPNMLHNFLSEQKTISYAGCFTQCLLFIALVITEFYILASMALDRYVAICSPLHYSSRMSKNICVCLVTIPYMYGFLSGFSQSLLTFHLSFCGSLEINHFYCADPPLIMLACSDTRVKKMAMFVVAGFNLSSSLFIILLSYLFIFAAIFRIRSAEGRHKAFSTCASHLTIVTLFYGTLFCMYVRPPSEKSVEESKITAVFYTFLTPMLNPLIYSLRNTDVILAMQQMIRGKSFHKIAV
Procedure, shortened: as §1

OR5M8 (Homo sapiens) = target: T3, OR5M8 (Homo sapiens) (UniProt Q8NGP6)
T3 sequence (whole entry): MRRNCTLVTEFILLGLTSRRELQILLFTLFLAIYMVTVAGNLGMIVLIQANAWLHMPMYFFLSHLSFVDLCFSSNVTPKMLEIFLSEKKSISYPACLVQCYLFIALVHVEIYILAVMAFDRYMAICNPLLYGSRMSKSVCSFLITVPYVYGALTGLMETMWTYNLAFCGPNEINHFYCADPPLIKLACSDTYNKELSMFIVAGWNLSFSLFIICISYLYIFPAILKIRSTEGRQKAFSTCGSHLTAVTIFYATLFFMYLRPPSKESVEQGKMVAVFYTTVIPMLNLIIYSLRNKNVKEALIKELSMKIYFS
Procedure, shortened: as §1

OR5M9 (Homo sapiens) = target: T4, OR5M9 (Homo sapiens) (UniProt Q8NGP3)
T4 sequence (whole entry): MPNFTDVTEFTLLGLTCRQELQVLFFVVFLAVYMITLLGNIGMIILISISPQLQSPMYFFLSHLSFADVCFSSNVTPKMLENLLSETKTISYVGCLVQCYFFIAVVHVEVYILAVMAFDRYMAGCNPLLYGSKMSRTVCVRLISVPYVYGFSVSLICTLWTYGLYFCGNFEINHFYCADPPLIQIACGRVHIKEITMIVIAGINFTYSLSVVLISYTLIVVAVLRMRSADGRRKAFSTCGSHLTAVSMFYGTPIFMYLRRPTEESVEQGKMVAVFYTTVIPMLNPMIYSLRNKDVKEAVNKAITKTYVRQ
Procedure, shortened: as §1

OR5MA = test system: T5, OR5MA
T5 sequence (whole entry): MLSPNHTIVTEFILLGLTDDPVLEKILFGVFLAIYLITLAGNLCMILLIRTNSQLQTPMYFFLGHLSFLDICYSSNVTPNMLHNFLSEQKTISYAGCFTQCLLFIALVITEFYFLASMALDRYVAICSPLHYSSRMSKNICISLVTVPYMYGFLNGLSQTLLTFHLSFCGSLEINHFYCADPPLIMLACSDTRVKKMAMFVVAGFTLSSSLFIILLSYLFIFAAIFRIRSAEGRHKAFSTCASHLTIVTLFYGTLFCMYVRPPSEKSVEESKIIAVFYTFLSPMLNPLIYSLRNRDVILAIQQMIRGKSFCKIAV
Procedure, shortened: as §1

OR5P2 (Homo sapiens) = target: T6, OR5P2 (Homo sapiens) (UniProt Q8WZ92)
T6 sequence (whole entry): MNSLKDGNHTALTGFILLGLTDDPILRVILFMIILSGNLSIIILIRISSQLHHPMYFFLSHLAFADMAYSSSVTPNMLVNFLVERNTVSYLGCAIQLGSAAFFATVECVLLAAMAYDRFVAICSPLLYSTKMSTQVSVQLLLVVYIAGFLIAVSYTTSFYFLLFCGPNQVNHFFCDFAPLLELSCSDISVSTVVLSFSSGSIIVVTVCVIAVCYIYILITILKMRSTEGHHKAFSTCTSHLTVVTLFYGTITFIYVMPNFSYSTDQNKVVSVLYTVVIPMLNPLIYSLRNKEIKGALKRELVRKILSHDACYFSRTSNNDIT
Procedure, shortened: as §1

OR5P3 (Homo sapiens) = target: T7, OR5P3 (Homo sapiens) (UniProt Q8WZ94)
T7 sequence (whole entry): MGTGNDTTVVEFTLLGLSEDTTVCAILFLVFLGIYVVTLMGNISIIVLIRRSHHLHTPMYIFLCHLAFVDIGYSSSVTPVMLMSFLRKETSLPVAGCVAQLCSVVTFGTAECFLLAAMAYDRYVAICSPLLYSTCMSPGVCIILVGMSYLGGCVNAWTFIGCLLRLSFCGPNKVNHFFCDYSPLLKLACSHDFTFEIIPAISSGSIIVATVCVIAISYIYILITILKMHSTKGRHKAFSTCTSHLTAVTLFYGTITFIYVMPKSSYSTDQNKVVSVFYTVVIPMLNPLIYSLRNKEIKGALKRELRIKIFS
Procedure, shortened: as §1

OR5R1 = test system: T8, OR5R1
T8 sequence (whole entry): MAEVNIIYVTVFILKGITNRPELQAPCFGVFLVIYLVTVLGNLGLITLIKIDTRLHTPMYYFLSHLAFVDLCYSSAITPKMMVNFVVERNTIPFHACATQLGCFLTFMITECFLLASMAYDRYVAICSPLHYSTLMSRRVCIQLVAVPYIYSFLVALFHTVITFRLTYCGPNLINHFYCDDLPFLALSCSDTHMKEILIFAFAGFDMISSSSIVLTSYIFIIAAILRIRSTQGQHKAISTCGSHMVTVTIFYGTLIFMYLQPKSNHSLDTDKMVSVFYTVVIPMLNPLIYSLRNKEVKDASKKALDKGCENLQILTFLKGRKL
Procedure, shortened: as §1

OR5T1 (Homo sapiens) = target: T9, OR5T1 (Homo sapiens) (UniProt Q8NG75)
T9 sequence (whole entry): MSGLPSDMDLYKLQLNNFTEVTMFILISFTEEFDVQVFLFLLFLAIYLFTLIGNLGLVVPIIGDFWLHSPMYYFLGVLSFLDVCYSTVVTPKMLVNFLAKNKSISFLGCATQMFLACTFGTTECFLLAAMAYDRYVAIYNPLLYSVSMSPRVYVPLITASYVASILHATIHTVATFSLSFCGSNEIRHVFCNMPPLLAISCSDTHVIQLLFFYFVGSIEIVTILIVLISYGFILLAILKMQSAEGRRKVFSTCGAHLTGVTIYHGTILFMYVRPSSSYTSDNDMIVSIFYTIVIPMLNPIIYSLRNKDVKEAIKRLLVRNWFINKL
Procedure, shortened: as §1

OR5T1 = test system: T10, OR5T1
T10 sequence (whole entry): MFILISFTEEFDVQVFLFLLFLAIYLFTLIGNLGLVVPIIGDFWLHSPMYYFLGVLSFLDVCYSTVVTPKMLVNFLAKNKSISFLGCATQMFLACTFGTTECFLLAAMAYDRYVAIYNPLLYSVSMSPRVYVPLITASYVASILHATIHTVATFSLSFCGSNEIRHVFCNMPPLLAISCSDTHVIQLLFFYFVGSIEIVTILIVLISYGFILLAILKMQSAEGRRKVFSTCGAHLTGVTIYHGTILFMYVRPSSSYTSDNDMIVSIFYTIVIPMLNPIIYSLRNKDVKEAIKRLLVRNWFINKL
Procedure, shortened: as §1

OR5T2 [1] = test system: T11, OR5T2
T11 sequence (whole entry): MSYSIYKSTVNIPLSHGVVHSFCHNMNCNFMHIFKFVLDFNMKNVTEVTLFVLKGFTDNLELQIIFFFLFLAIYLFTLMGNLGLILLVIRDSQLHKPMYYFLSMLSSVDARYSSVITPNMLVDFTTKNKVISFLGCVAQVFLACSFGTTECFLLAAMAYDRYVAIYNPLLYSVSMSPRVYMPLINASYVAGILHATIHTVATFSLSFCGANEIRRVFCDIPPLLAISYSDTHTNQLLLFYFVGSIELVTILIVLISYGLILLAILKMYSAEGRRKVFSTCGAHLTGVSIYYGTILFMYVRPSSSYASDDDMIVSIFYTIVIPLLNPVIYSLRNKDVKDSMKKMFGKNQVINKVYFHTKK
Procedure, shortened: as §1

OR5T2 [2] = test system: T12, OR5T2; remark: listed apart in the source
T12 sequence (whole entry): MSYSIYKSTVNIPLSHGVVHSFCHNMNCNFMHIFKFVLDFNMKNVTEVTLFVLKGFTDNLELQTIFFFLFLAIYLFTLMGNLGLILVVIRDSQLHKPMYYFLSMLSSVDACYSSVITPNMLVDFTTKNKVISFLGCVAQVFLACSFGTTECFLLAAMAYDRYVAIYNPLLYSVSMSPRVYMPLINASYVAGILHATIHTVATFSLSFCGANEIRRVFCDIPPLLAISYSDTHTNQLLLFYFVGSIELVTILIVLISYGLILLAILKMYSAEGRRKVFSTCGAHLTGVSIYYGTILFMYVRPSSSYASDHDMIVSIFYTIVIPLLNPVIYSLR
Procedure, shortened: as §1

OR5T3 = test system: T13, OR5T3
T13 sequence (whole entry): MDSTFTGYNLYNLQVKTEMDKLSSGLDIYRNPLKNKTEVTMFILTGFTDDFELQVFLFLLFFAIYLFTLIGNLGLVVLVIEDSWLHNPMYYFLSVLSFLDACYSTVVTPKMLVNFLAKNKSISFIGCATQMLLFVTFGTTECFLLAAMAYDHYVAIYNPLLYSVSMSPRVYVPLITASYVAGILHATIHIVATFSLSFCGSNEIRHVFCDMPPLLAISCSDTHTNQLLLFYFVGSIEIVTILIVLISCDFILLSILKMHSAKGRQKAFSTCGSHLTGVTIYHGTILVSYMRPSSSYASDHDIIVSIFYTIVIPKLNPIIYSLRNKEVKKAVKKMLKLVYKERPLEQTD
Procedure, shortened: as §1

OR5V1 (Homo sapiens) = target: T14, OR5V1 (Homo sapiens) (UniProt Q9UGF6)
T14 sequence (whole entry): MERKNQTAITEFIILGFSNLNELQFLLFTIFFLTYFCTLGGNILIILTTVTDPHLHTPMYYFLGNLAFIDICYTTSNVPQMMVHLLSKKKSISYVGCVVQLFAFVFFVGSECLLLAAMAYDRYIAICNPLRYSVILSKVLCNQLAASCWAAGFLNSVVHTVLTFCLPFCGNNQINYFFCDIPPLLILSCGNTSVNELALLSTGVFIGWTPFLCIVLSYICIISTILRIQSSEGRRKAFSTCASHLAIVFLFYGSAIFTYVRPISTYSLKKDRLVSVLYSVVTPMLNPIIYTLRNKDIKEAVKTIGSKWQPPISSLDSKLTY
Procedure, shortened: as §1

OR5W2 = test system: T15, OR5W2
T15 sequence (whole entry): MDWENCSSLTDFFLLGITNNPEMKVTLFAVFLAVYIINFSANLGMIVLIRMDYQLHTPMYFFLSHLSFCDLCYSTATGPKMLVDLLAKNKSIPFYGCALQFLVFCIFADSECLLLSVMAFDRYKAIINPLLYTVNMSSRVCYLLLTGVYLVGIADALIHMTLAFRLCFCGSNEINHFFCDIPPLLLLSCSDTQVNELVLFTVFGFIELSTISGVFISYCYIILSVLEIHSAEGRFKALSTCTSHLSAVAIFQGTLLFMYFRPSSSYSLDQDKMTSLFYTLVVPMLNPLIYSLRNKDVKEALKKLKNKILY
Procedure, shortened: as §1

OR6A2 (Homo sapiens) = target: T16, OR6A2 (Homo sapiens) (UniProt O95222)
T16 sequence (whole entry): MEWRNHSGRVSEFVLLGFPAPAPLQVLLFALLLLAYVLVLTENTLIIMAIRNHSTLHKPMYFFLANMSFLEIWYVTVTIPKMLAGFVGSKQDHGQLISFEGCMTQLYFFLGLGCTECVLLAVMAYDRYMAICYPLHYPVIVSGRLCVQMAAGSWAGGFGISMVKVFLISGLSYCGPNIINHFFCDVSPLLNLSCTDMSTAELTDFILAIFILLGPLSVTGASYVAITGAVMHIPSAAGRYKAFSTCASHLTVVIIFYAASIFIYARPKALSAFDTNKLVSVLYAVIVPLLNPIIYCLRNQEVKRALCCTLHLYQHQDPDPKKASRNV
Procedure, shortened: as §1

OR5M3 (Homo sapiens) = target: T17, OR5M3 (Homo sapiens) (UniProt Q8NGP4)
T17 sequence (whole entry): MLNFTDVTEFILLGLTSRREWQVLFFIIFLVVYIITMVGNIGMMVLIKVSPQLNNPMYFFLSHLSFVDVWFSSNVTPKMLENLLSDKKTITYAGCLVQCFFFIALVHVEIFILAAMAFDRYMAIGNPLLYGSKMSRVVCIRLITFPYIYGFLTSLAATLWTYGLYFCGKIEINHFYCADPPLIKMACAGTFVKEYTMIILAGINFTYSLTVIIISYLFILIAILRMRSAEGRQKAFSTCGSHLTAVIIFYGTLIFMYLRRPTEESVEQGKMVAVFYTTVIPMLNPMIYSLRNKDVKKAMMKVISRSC
Procedure, shortened: as §1

Row | SMILES | odorant receptor agonist call (OR5M11 (Homo sapiens)) | odorant receptor agonist call (OR5M1) | odorant receptor agonist call (OR5M8 (Homo sapiens)) | odorant receptor agonist call (OR5M9 (Homo sapiens)) | odorant receptor agonist call (OR5MA) | odorant receptor agonist call (OR5P2 (Homo sapiens)) | odorant receptor agonist call (OR5P3 (Homo sapiens)) | odorant receptor agonist call (OR5R1) | odorant receptor agonist call (OR5T1 (Homo sapiens)) | odorant receptor agonist call (OR5T1) | odorant receptor agonist call (OR5T2 [1]) | odorant receptor agonist call (OR5T2 [2]) | odorant receptor agonist call (OR5T3) | odorant receptor agonist call (OR5V1 (Homo sapiens)) | odorant receptor agonist call (OR5W2) | odorant receptor agonist call (OR6A2 (Homo sapiens)) | odorant receptor agonist call (OR5M3 (Homo sapiens))
1 | CCC1(O)C2(C)CCC(C2)C1(C)C (centres undefined) | inactive | inactive | inactive | inactive | inactive | inactive | inactive | inactive | inactive | inactive | inactive | inactive | inactive | inactive | inactive | inactive | 
2 | C=C(C)C1CC=C(C)C(=O)C1 (centres undefined) |  |  |  |  |  |  | active |  |  |  |  |  |  |  |  |  | inactive
3 | CC1CCC(C(C)C)C(O)C1 (centres undefined) | active | inactive | active | inactive | inactive | inactive | active | inactive | inactive | inactive | inactive | inactive | inactive | inactive | active | inactive | 
